Data on 42 sequences can be found in paper PMC7819943, “Rice protein-binding microarrays: a tool to detect cis-acting elements near promoter regions in rice”.

The other results are listed elsewhere or left out.

The target in the assay is T1, OsSMF1 (Oryza sativa, UniProt Q6ZLB0 1-436).
T1 sequence: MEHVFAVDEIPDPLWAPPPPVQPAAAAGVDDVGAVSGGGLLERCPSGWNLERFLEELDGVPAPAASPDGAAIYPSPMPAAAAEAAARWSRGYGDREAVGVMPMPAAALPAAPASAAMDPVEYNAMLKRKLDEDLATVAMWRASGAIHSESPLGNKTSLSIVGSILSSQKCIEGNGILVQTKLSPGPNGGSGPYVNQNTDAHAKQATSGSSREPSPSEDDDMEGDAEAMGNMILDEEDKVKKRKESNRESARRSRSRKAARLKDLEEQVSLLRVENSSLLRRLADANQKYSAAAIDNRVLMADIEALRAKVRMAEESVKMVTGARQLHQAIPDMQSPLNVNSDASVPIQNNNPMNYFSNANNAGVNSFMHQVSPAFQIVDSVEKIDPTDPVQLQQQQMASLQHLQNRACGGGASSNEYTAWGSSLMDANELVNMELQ
The assay can be described thus: protein-binding microarray (RPBM); PBS, 2% BSA, 51.3 ng/ul salmon testes DNA, 50 uM zinc acetate, 200 nM TF, 25 C, 1 h; high values mean tight binding. Conditions: protein: recombinant; tags: N-terminal polyhistidine and DsRed monomer fusion (pET32a); chain copies: 2; label: CyDye5-dUTP incorporated in the synthesized complementary strand; 3' TTTTT single-stranded linker to array surface; dsDNA, one strand shown. In outline: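 Transcription factors were made in E. coli BL21-CodonPlus as N-terminal fusions to a polyhistidine tag and DsRed, then purified on Ni–NTA. After primer extension with Cy5-dUTP and blocking with 2% BSA, a custom Agilent array was exposed for 1 h at 25 °C to 200 nM protein in PBS, 2% BSA, salmon testes DNA and 50 µM zinc acetate. Washed arrays were scanned on an Axon 4000B, and the binding signal is per-feature fluorescence intensity in arbitrary units.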
As for “AACCATGGGCTGCTTTCACCGTGTTGTGTTCATCTCCTTCCGGAGTCACCTAGTGCAG”, the binding signal is 25900 fluorescence intensity (a.u.). “AAGTCGATCTTATGCTCAATTCTACGCACCGGTGGCAGCCCGGAGTCACCTAGTGCAG”: the binding signal was 3380 fluorescence intensity (a.u.). Turning to “TTGATGACTTAATAAAATTTTGACAGTGCTAAAAGTTACCCGGAGTCACCTAGTGCAG”, the binding signal was 34900 fluorescence intensity (a.u.). With “AAAAGATTCAATTCCGACCTGGCAAAGCGTCAGCCACTCGCGGAGTCACCTAGTGCAG” the figure was 4800 fluorescence intensity (a.u.); with “TATCAACGGGATCTGTCTCCTAAGTAATGACAAACTGAGACGGAGTCACCTAGTGCAG”, 33000 fluorescence intensity (a.u.). As for “AGATGAGCTGTGAGCTGTGTGTGTGACACAGTCTACTGCTCGGAGTCACCTAGTGCAG”, the figure is 5870 fluorescence intensity (a.u.); as for “CTTGCACGACTCCATGCCGATGACTTAACGAGTTCACGCGCGGAGTCACCTAGTGCAG”, 3830 fluorescence intensity (a.u.).

For “TTCATAGTTGTGGCACTGACGTATCAGCCGATGAGTCTCACGGAGTCACCTAGTGCAG”, the binding signal is 3340 fluorescence intensity (a.u.). As for “GCCACCCGTCAAAGGTGACTGGACTCACCAGTGGCCACTGCGGAGTCACCTAGTGCAG”, the binding signal was 3640 fluorescence intensity (a.u.). With “GGTTATCATTCTGTTCCAAGTCAATTCTTGCATCAATAACCGGAGTCACCTAGTGCAG”, the binding signal is 4060 fluorescence intensity (a.u.). As to “CACCGCCGTCGCCTTCGTCCTCCCACCGTGGAAGCCTCGCCGGAGTCACCTAGTGCAG”, the binding signal was 3400 fluorescence intensity (a.u.).

Consider “ATGAAGCTCTGACTTCGCTACAGTTGAGAGCAAACGGCGCCGGAGTCACCTAGTGCAG”, for which the binding signal is 24500 fluorescence intensity (a.u.). Consider “ACGCCCACGCCACGCGTCCCAGTCTCCCTGCATGTGATACCGGAGTCACCTAGTGCAG”, for which the binding signal is 5900 fluorescence intensity (a.u.).

For “CACCATGCTAGTTTGTTGTAATAGGAGGGGTCATATTAGTCGGAGTCACCTAGTGCAG”, the binding signal was 3360 fluorescence intensity (a.u.).

As to “GGAGAAGGGGTTCGAGTGAGATAGAATCCGGAGGAGGAGGCGGAGTCACCTAGTGCAG”, the binding signal is 3180 fluorescence intensity (a.u.). With “TCAACAAGTTTTGTACACCTCACTCCTGTTGCTTTCGCGTCGGAGTCACCTAGTGCAG” the figure was 4920 fluorescence intensity (a.u.); with “GGAGAGTAGAGGCGCCGCCCATTTTGATGAACAGCAGGTGCGGAGTCACCTAGTGCAG”, 3210 fluorescence intensity (a.u.); with “GCCGTTTGTAGCTCGGTGACACGTGACGACGTGAGATCCACGGAGTCACCTAGTGCAG”, 3610 fluorescence intensity (a.u.). As for “ACGTCTGACTCTTATGAGTTCTGACACAGCGAGACCGGGACGGAGTCACCTAGTGCAG”, the binding signal was 3960 fluorescence intensity (a.u.). As for “ACTACCTACCACATACGCCATCCCAATGTAGCAGGTGGATCGGAGTCACCTAGTGCAG”, the figure is 3310 fluorescence intensity (a.u.); as for “AGTCACTCTGTTTTACATGCACGTAAGATTAGCTTCCAAGCGGAGTCACCTAGTGCAG”, 4690 fluorescence intensity (a.u.). With “TTGAAGAGAAAATGTGACGTATCGTCTTCCACCATGTACCCGGAGTCACCTAGTGCAG” the figure was 5400 fluorescence intensity (a.u.); with “CCGTGGGCCCCACACGTCAGCCACACTGCAATCACCAGATCGGAGTCACCTAGTGCAG”, 10700 fluorescence intensity (a.u.).

Regarding “GTTTATATAAAGTCATGAGCTAGCGCCACGCCACACGGACCGGAGTCACCTAGTGCAG”, the binding signal is 25000 fluorescence intensity (a.u.). As for “AAGGAAGAAATAATCTCTCGTGAGCTCTCATACTCCACACCGGAGTCACCTAGTGCAG”, the figure is 16400 fluorescence intensity (a.u.); as for “GCCCGCGGCTCGGCCCAAAGAACGCGTGTTTGGCCCGGCCCGGAGTCACCTAGTGCAG”, 3530 fluorescence intensity (a.u.); as for “CGCTCTCCTCAACCCGACGGGACGTGTCACACACTCACACCGGAGTCACCTAGTGCAG”, 6010 fluorescence intensity (a.u.). As to “GTCCACGCCACTTGATGACACGCTGTCGCCAGCGGAAGTTCGGAGTCACCTAGTGCAG”, the binding signal was 3140 fluorescence intensity (a.u.). With “ATATCTCATAACCGTGAAATTATAACGGATGTGTTCAAATCGGAGTCACCTAGTGCAG” the figure was 19100 fluorescence intensity (a.u.). As for “AATGTCACACCGTGTAATGTCATGTCAGAGGATACGGTTGCGGAGTCACCTAGTGCAG”, the figure is 5710 fluorescence intensity (a.u.); as for “TAACCAAATGGGGTGACTAGGTCAGATAGAGCTGATCAGCCGGAGTCACCTAGTGCAG”, 3520 fluorescence intensity (a.u.).

With “AGGCTGAGCTTCAAGCTGAAGCTGTGACAAACAGTTCCCTCGGAGTCACCTAGTGCAG”, the binding signal was 3350 fluorescence intensity (a.u.).

As to “ACCGATCTACATCAAATTTGAGGGTAACTTTTATTTCCGCCGGAGTCACCTAGTGCAG”, the binding signal was 3640 fluorescence intensity (a.u.). In the case of “GCCTGCCCGGCCACATCATGTTTCCATCGTTGTCCTCCTTCGGAGTCACCTAGTGCAG”, the binding signal is 5930 fluorescence intensity (a.u.). As for “CCAGGATAAAATAAAGGTTGTATGTTACAAATGTTTGATCCGGAGTCACCTAGTGCAG”, the figure is 42200 fluorescence intensity (a.u.); as for “TCGGATTGACGATAAGAATCTTAAAATTTCCCGGTGTCATCGGAGTCACCTAGTGCAG”, 3420 fluorescence intensity (a.u.). As for “TGAATACCATGCCAGGTTTGATCATGCCATAATTAGTACGCGGAGTCACCTAGTGCAG”, the figure is 3510 fluorescence intensity (a.u.); as for “AGCGGCGTTGCGAGCCGCATCAACCGCGAGGGCGACGGTGCGGAGTCACCTAGTGCAG”, 3870 fluorescence intensity (a.u.); as for “CGCATTCGCTCGCCACGCACGACGTCACGCGCGCGGCCGGCGGAGTCACCTAGTGCAG”, 5620 fluorescence intensity (a.u.). As for “TGAAGGCAAAGGATAGCGCATGGTTGCTGGCAGCCTTAGCCGGAGTCACCTAGTGCAG”, the figure is 3390 fluorescence intensity (a.u.); as for “AAGTGAGCCCAACAATCACAGGTGTGTTGCTTCCATGTTCCGGAGTCACCTAGTGCAG”, 3560 fluorescence intensity (a.u.); as for “TTGTCATATACTCGTCTCAATCTTAGAACAGTTTTGAGTGCGGAGTCACCTAGTGCAG”, 3970 fluorescence intensity (a.u.).
